This data set can be described thus: Plasma pharmacokinetics. To be noted: human, in vivo, iv, 0.3 mg.

SMILES strings stand for the structures.

What is called AUC(0-inf) is the area under the concentration-time curve extrapolated to infinity. Low values mean less exposure, high ones more exposure.

`CN1[C@@H]2C[C@@H](OC(=O)[C@H](CO)c3ccccc3)C[C@H]1[C@@H]1O[C@@H]12` [scopolamine] returned an AUC(0-inf) of 3.43 ng·h/mL.

Values taken from publication PMC6446049 (Alzheimer's & Dementia : Translational Research & Clinical …, 2019).
